In PMC6264466, “HPLC Determination of Antilipoxygenase Activity of a Water Infusion of Ligustrum vulgare L. Leaves and Some of Its Constituents” (Molecules, 2011):

Test system: T1, 8-LOX
T1 construct: gene Alox15b; native, male rat lung cytosol; ammonium sulphate, Sephadex G-150 and Phenyl-Sepharose CL-4B; LOX activities not separated
Experiment: HPLC of 8-HETE formed from arachidonic acid
Assay type: biochemical, Rattus norvegicus
Details: Tris-HCl pH 7.4, ambient temperature, 30 min, partially purified LOX mixture

Structure (SMILES) | % inhibition (inhibitor 33.75-66.42 ug/mL, exact concentration for this value not stated) | % inhibition at higher concentration (inhibitor at higher concentration (series 232.36-692.37 ug/mL)) [%]
C/C=C1/[C@H](O[C@@H]2O[C@H](CO)[C@@H](O)[C@H](O)[C@H]2O)OC=C(C(=O)OC)[C@H]1CC(=O)OCCc1ccc(O)c(O)c1 [oleuropein] | ~ 40% | –
C[C@@H]1O[C@@H](O[C@@H]2[C@@H](O)[C@H](OCCc3ccc(O)c(O)c3)O[C@H](CO[C@@H]3O[C@H](CO)[C@@H](O)[C@H](O)[C@H]3O)[C@H]2OC(=O)/C=C/c2ccc(O)c(O)c2)[C@H](O)[C@H](O)[C@H]1O [echinacoside] | – | 28.7
